Test results reported in PubChem BioAssay AID652054 (National Center for Advancing Translational Sciences (NCATS), 2013).
“And” between values parts separate entries of the source, which are not always exact repeats. Equal values may be shown once. In all, about 360,000 compounds went through this assay and about 9,100 (2.5%) were called active. The shares of active, inactive and inconclusive entries below differ from those in the screen. Rule as the data show it: active = max response below about -50%; inconclusive = no clear call, values can overlap the other calls; inactive = above that.

Amino acid sequences for entries named in this document (tags omitted).
UniProt P35462, whole entry, looked up: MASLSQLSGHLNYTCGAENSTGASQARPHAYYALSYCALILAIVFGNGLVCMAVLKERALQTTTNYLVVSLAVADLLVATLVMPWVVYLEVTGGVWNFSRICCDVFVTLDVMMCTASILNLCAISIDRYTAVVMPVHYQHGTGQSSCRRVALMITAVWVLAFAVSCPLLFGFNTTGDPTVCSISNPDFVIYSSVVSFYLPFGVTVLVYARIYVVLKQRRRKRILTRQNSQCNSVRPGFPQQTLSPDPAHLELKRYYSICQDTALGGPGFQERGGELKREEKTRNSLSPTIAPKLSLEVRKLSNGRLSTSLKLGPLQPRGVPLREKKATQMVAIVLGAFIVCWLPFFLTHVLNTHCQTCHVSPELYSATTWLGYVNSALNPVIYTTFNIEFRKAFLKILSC

These molecules were tested against D(3) dopamine receptor (Homo sapiens) (UniProt P35462) (assay: qHTS of D3 Dopamine Receptor Antagonist: qHTS). Settings: D3R cells, DiscoveRx beta-arrestin luminescence, antagonist mode; stronger effect = lower value.
Summary of the method: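 Cells expressing the human receptor were seeded at 1500 cells/well, incubated overnight at 37 degrees C in 5% CO2, then exposed to library compounds with dopamine controls for 90 minutes at 37 degrees C before luminescent detection.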
% is scaled to controls: 0 for no effect and ±100 for the full control effect.

| SMILES | max response, negative = inhibition |
| --- | --- |
| O=C(NC1CCN(CCc2c[nH]c3ccccc23)CC1)c1ccccc1 | active: -103% |
| Cn1cc(CN2CCC(n3nccc3NC(=O)Cc3ccccc3)CC2)cn1 | inconclusive: -44.9% |
| Cc1nonc1OCCNCCNc1ccccc1[N+](=O)[O-] | inconclusive: -30.9% |
| CC(=O)Nc1ccc(-c2ccnc3c2CC(C(=O)NCc2ccccc2)O3)cc1 (configuration not stated) | inactive: -12.7% |
| CCNC(=S)Nc1cccc(F)c1C | inactive: 6.47% |
| CCOc1ccc(NC(=O)CSc2nc3ccccc3c(=O)n2CCCC(=O)N2CCCC2)cc1 | inconclusive: -30.8% |
| COc1ccc(O)c(/C=c2/sc3nc4cc(C)c(C)cc4n3c2=O)c1 | inactive: -15.6% |
| Cc1cc(N2CCCN(C)CC2)nc2cc(Cl)ccc12 | inconclusive: -44.8% |
| CCCCn1c(SCC(=O)N2CCC(C(=O)OCC)CC2)nc2cc(S(N)(=O)=O)ccc21 | inconclusive: -44.8% |
| COc1cccc(CN2CCN(Cc3c(C)nn(C(C)C)c3C)CC2CCO)c1 (configuration not stated) | inconclusive: -34% |
| Cc1noc(C)c1C(=O)OCC(=O)N1CCc2ccccc21 | inconclusive: -44.6% |
| CCCC1(c2ccccc2)NC(=O)N(CC(=O)Nc2sc(-c3ccccc3)cc2C(=O)OCC)C1=O (configuration not stated) | inconclusive: -34.9% |
| CC(=O)N1CCc2cc(S(=O)(=O)NCCN3CCC(C)CC3)ccc21 | active: -57.7% |
| N=c1c2c3c(sc2nc2n1CCC2)CCCC3 | inconclusive: -32.6% |
| Cc1ccsc1/C=N/n1c(-c2cccnc2)n[nH]c1=S | inconclusive: -38.3% |
| COc1ccc(C2CC(=O)Oc3c(C(CCN4CCOCC4)c4cc(OC)c(OC)c(OC)c4)c(OC)cc(OC)c32)cc1 (configuration not stated) | inactive: 0% |
| CCN(c1ccccc1)S(=O)(=O)c1ccc(OC)c(NC(=O)c2ccco2)c1 | inactive: 4.49% |
| O=C(NCCSc1c(-c2ccccc2)[nH]c2ccccc12)c1cc2ccccc2oc1=O | inactive: -10.2% |
| CC(C)[C@H](NC(=O)N1CC(=O)Nc2ccccc21)C(=O)N[C@H](Cc1c[nH]c2ccccc12)C(=O)O | inconclusive: -34.6% |
| COc1ccc(NC(=O)CN2C(=O)COc3ccc(S(=O)(=O)N4CCCCCC4)cc32)cc1 | inconclusive: -37.3% |
| CN(CCc1ccccn1)C1CCCN(S(=O)(=O)c2ccccc2)C1 (configuration not stated) | inactive: -2.51% |
| C[C@H]1CN([C@@H](C)CO)C(=O)Cc2cc(NC(=O)Cc3ccccc3)ccc2O[C@H]1CN(C)S(=O)(=O)c1cccs1 | inconclusive: -36.4% |

| SMILES | max response, negative = inhibition |
| --- | --- |
| N#Cc1nc(COc2ccccc2Cl)oc1NCc1ccco1 | inconclusive: -35.6% |
| CCN(CC)S(=O)(=O)c1ccc(N2CCN(c3cccc(OC)c3)CC2)c([N+](=O)[O-])c1 | inconclusive: -31.6% |
| CCN1/C(=C/C(C)=C/c2sc3ccccc3[n+]2CC)Sc2ccccc21 | active: -58.9% and inconclusive: -31.7% |
| CCn1c(=O)c2ccccc2n(Cc2cccc([N+](=O)[O-])c2)c1=O | inconclusive: -30.7% |
| CC(=O)N1CCN(c2ccc(NC(=O)c3cccc(Cl)c3Cl)cc2)CC1 | inconclusive: -30.2% |
| COc1ccccc1/C=N/NC(=O)c1ccc(Br)cc1 | inconclusive: -49.6% |
| COc1ccc(CN(CC2CCCO2)C(=O)CN2C(=O)C(C)Oc3ccc(C)cc32)cc1OC (configuration not stated) | inactive: -19.7% |
| O=C(Nc1ccccc1)C1Cc2c(-c3cccc(F)c3)ccnc2O1 (configuration not stated) | inactive: -1.03% |
| COc1cccc(NC(=O)Nc2ccc(C)c(Cl)c2)c1 | inactive: 4.35% |
| CC1=C(C(=O)N2CCOCC2)CC(CC(=O)NC2CC2)C(=O)N1Cc1ccc(C(C)(C)C)cc1 (configuration not stated) | inconclusive: -45.2% |
| O=C(NCCc1ccccc1)C(=O)NCC1OCCCN1S(=O)(=O)c1cc(F)ccc1F (configuration not stated) | inconclusive: -34.6% |
| Cc1ccc(NC(=O)CN(C)C(=O)c2sc3cc(Cl)ccc3c2Cl)cc1 | inactive: -7.37% |
| COc1ccc(N=CC2=C(O)CC(C)(C)CC2=O)cc1 | inconclusive: -30.4% |
| O=C(NC(=S)NNC(=O)c1ccccc1O)c1ccc([N+](=O)[O-])cc1 | inconclusive: -36.4% |
| Oc1cc(OCc2ccccc2)ccc1-c1[nH]ncc1-c1ccccc1 | inconclusive: -30.5% |
| Cc1cc(C(F)(F)F)nn1CC(=O)NNC(=S)Nc1ccc(F)cc1 | inconclusive: -31.9% |
| S=c1[nH]ncn1/N=C/c1ccc(N2CCOCC2)cc1 | inconclusive: -46.6% |
| COc1ccc(OCCOCCN2CCc3ccccc3C2)cc1 | active: -50.7% |
| O=[N+]([O-])c1ccccc1/C=N\N1CCN(Cc2ccccc2Cl)CC1 | inactive: 0.345% |
| COc1ccc(COc2ccsc2C(=O)Nc2ccc(Cl)cc2)cc1 | inactive: 37.3% |
| O=C(c1ccc(Cl)c([N+](=O)[O-])c1)N(Cc1ccc(F)cc1)C1CCS(=O)(=O)C1 (configuration not stated) | inactive: -17.2% |
| O=C(NCCC1=CCCCC1)c1ccc(Br)o1 | inactive: 18.9% |

| SMILES | max response, negative = inhibition |
| --- | --- |
| CC1(Oc2ccccc2-c2ccno2)CCN(Cc2ccc(-c3ccccc3)o2)C1 (configuration not stated) | inconclusive: -34.9% |
| COc1ccc(/C=N/NC(=O)Nc2ccc3nsnc3c2)c(OC)c1 | inactive: -16.9% |
| CCS(=O)(=O)c1ncc(Cl)c(C(=O)Nc2ccc(C)cc2)n1 | active: -130% |
| CC(=O)NC1(C2CCCCC2=O)CCCCC1 (configuration not stated) | active: -64.7% |
| Cn1ccc2cc3c(cc21)CCN3C(=O)Nc1cccnc1 | inconclusive: -39.9% |
| N#C/C(=C/c1ccc(N2CCCC2)c([N+](=O)[O-])c1)c1nc2ccccc2[nH]1 | inconclusive: -42% |
| Fc1ccc(N2CCN(c3ncnc4nc[nH]c34)CC2)cc1 | inactive: 38.6% |
| COc1cccc(NC(=O)C2CCC2)c1 | inactive: 0% |
| O=C1NC[C@H](Cc2ccccc2)N(CC2CCN(CCCC3CCCC3)CC2)C1=O | inconclusive: -33.6% |
| CC(C)NC(=O)/C(C#N)=C\c1ccc(N(C)C)o1 | inactive: -3.96% |
| CCCS(=O)(=O)N1CCN(Cc2ccccc2C(F)(F)F)CC1 | inconclusive: -39.2% |
| O=[N+]([O-])c1ccc(NN=Cc2cc(Br)ccc2O)nc1 | inconclusive: -40.4% |
| CCn1c(N)nc2c1c(=O)n(C)c(=O)n2C | inactive: 18.2% |
| CN1CCN(C(=O)c2cc3c(c(-c4cccc(-c5cccnc5)c4)n2)[C@@H](CCO)N(C(=O)CC2CC2)C3)CC1 | inconclusive: -30.8% |
| COc1cccc(CNc2nc3nc(C)cc(C)n3n2)c1 | inactive: -13% |
| COc1cccc(NC(=O)CCN2C(=O)c3cccc([N+](=O)[O-])c3C2=O)c1 | inconclusive: -33% |
| COc1ccc(C=C(C(C)=O)C(C)=O)cc1OC | active: -50.4% |
| Cc1ccc(-c2cn3nc(C)c(C)nc3n2)cc1 | inactive: -9.93% |
| CCc1ccc(NC(=O)C2=CC(c3ccc(OC)cc3)=NS(=O)(=O)N2C)cc1 | inconclusive: -47.1% |
| O=S(=O)(/N=C(/Nc1nc2ccccc2s1)c1ccccc1)c1ccccc1 | inactive: -15.7% |
| CC1CCN(c2ccc([N+](=O)[O-])cc2C(=O)O)CC1 | inconclusive: -49.3% |
| Cc1cccc(N2C(=O)c3cccc4c(N5CCCCC5)c([N+](=O)[O-])cc(c34)C2=O)c1C | inactive: 16.7% |

| SMILES | max response, negative = inhibition |
| --- | --- |
| CCn1nc(C)cc1C(=O)Sc1ccc(C)cc1 | inactive: 4.75% |
| CN(C)c1ccc(C(CNS(=O)(=O)c2ccc([N+](=O)[O-])cc2)N2CCOCC2)cc1 (configuration not stated) | inactive: -5.7% |
| CCOc1cc(/C=C2\COc3ccccc3C2=O)cc(Br)c1OCC(=O)N(C)C | inconclusive: -31.3% |
| COc1cccc(/C=N/NC(=O)c2cccc([N+](=O)[O-])c2)c1OS(=O)(=O)c1ccc(C)cc1 | inconclusive: -32.5% |
| CC(=O)N1N=C(c2ccncc2)CC1c1ccccc1O (configuration not stated) | inactive: 14.2% |
| O=C(COC(=O)c1cccs1)Nc1nc(-c2ccccc2)cs1 | inconclusive: -38.6% |
| CC(OC(=O)c1cccc(-n2cnnn2)c1)C(=O)Nc1ccccc1F (configuration not stated) | inconclusive: -49.5% |
| CN(C)CCCN(C(=O)c1cccs1)c1nc(-c2ccccc2)cs1 | active: -52.6% |
| CSc1nc(SCC(N)=O)c2c3c(sc2n1)CN(C)CC3 | active: -53.7% |
| O=C(NC(=S)NC1CCN(Cc2ccccc2)CC1)c1ccc(F)cc1 | inconclusive: -33% |
| CCCNc1[nH]c(=O)n(C)c(=O)c1N=O | inconclusive: -30.9% |
| O=C(CSc1nnc(NC(=O)CN2CCOCC2)s1)Nc1ccccc1 | inconclusive: -34% |
| COc1ccc2c3n(nc2c1)CCN=C3c1ccc(C)cc1 | inconclusive: -38.9% |
| CCCCOCCCNC(=O)C[C@@H]1C[C@@]2(C(=O)OCC)CCCC=C2N(Cc2ccc3c(c2)OCO3)C1=O | inconclusive: -48.4% |
| CCN(CC(=O)Nc1ccc2c(c1)OCCO2)C(=O)c1ccc(S(=O)(=O)N(C)C)cc1 | inactive: -7.45% |
| COc1ccc(C(=O)CSc2nc(-c3ccccn3)nc(C)c2Cl)cc1 | active: -59.5% |
| COc1ccc(NC(=O)C2CCCNC2)cc1OCC(C)C (configuration not stated) | inconclusive: -35.2% |
| CC(=O)Nc1ccc(S(=O)(=O)NCCC(=O)OCC(=O)NNC(=O)c2ccccc2)cc1 | inconclusive: -37.2% |
| Fc1ccc(C2c3cccn3CCN2C(=S)Nc2cccc(Br)c2)cc1 (configuration not stated) | inconclusive: -30.3% |
| CCc1cc2c(cc3c(=O)n(CC(=O)NCCCN4CC(C)CC(C)C4)ncn32)s1 (configuration not stated) | inconclusive: -46.4% |
| Cc1oc(-c2cccs2)nc1CN1CC[C@@](O)(c2ccccc2)[C@H]2CCCC[C@@H]21 | inconclusive: -41.7% |

Among those listed so far, these have a CF3 group.

| SMILES | max response, negative = inhibition |
| --- | --- |
| Cc1cc(C(F)(F)F)nn1CC(=O)NNC(=S)Nc1ccc(F)cc1 | inconclusive: -31.9% |
| CCCS(=O)(=O)N1CCN(Cc2ccccc2C(F)(F)F)CC1 | inconclusive: -39.2% |

Exported with tabs: part of the list above.
SMILES	max response, negative = inhibition
O=C(NC1CCN(CCc2c[nH]c3ccccc23)CC1)c1ccccc1	active: -103%
Cn1cc(CN2CCC(n3nccc3NC(=O)Cc3ccccc3)CC2)cn1	inconclusive: -44.9%
Cc1nonc1OCCNCCNc1ccccc1[N+](=O)[O-]	inconclusive: -30.9%
CC(=O)Nc1ccc(-c2ccnc3c2CC(C(=O)NCc2ccccc2)O3)cc1 (configuration not stated)	inactive: -12.7%
CCNC(=S)Nc1cccc(F)c1C	inactive: 6.47%
